# In the supplement of paper PMC10398353:
# Values joined by “and” are separate entries in the source; they are usually repeats but may differ in a detail not shown here. Equal entries are not always repeated. Structures can show the parent of a compound that is named as a salt. The list shows a part of the results. The data scatter; read single values as rough.
# Tested on: Salmonella enterica serovar Typhimurium ST313 D23580
# Assay: normalized bacterial growth (OD600 20 h minus 0 h, interquartile-mean normalized) (fraction of plate interquartile mean); higher = more bacterial growth (less inhibition)
# Details: LPM (pH 5.8, low phosphate, low Mg2+), concentration: 10 µM, temperature: 37 °C
row,SMILES,normalized bacterial growth
1,O=C1NC(=O)C(c2ccccc2[N+](=O)[O-])=C1Nc1ccc(O)c(Cl)c1,1.23
2,CCCc1ncc(C[n+]2ccccc2C)c(N)n1,1.18
3,C=CC(C)(O)CCC=C(C)CCC=C(C)C (mixture of isomers),0.918
4,CC1(C)CCC(NC(=O)[C@@H](N)CCC(=O)O)CC1,1.14
5,O=C(O)C1CCNCC1 [Isonipecotic acid],1.2
6,COc1cc(O)c(C(=O)/C=C/c2ccc(OC)c(O)c2)c(OC)c1,0.432
7,CC(CCC(=O)O)[C@H]1CCC2C3C[C@H](O)[C@@H]4C[C@H](O)CC[C@]4(C)C3CC[C@@]21C (stereo partly drawn) [alpha-HYDROXYDEOXYCHOLIC ACID],1.2
8,OC[C@@H](O)[C@@H](O)[C@H](O)[C@H](O)CO,1.1
9,C=CCc1ccc(O)c(OC)c1,1.1
10,CC(=O)OCC(=O)NCCCOc1cccc(CN2CCCCC2)c1 [Roxatidine Acetate HCl],0.892
11,CCn1cc(C(=O)O)c(=O)c2cc(F)c(N3CCNCC3)nc21,1.27
12,"CC1(C)CCC=[N+]1[O-] [""5,5-Dimethyl-1-pyrroline-N-oxide""]",1.09
13,c1ccc(CC2=NCCN2)cc1,0.688
14,NCCCCC(=O)O [5-Aminovaleric acid hydrochloride],1.05
15,OCCN1CCN(CCCN2c3ccccc3Sc3ccc(C(F)(F)F)cc32)CC1 [Fluphenazine dihydrochloride],1.18
16,CC(C)(Oc1ccc(CCNC(=O)c2ccc(Cl)cc2)cc1)C(=O)O,0.925
17,CC1=CC(=O)[C@H]2C(C)(C)CCC[C@]2(C)[C@@]1(O)CCc1ccoc1,0.901
18,CC(=O)OCC(=O)[C@H]1CC[C@H]2[C@@H]3CC=C4C[C@@H](O)CC[C@]4(C)[C@H]3CC[C@]12C,0.869
19,Clc1ccc2c(c1)C(N1CCNCC1)=Nc1ccccc1O2 [Amoxapine],1.02
20,CC(C)[C@@H](C)/C=C/[C@@H](C)[C@H]1CC[C@H]2C3=CC=C4C[C@@H](O)CC[C@]4(C)[C@H]3CC[C@]12C,0.961
21,O=C(O)CCCc1c[nH]c2ccccc12,1.17

row,SMILES,normalized bacterial growth
1,O=C1c2ccccc2C(=O)C1c1ccccc1,1.49
2,O=C(O)CCc1nc(-c2ccccc2)c(-c2ccccc2)o1 [Oxaprozin],1.04
3,CC(C(=O)O)c1ccc(CC2CCCC2=O)cc1 (configuration not stated) [loxoprofen],0.98
4,CC[C@H]1OC(=O)[C@H](C)[C@@H](O[C@H]2C[C@@](C)(OC)[C@@H](O)[C@H](C)O2)[C@H](C)[C@@H](O[C@@H]2O[C@H](C)C[C@H](N(C)C)[C@H]2O)[C@](C)(O)C[C@@H](C)C(=O)[C@H](C)[C@@H](O)[C@]1(C)O,1.14
5,CC1=C(/C=C/C(C)=C/C=C/C(C)=C/C=C/C=C(C)/C=C/C=C(C)/C=C/C2=C(C)CCCC2(C)C)C(C)(C)CCC1 [beta-CAROTENE],0.963
6,Cc1c(Cl)cccc1Nc1ccccc1C(=O)O,0.926
7,CCCSc1ccc2[nH]c(NC(=O)OC)nc2c1 [Albendazole],0.918
8,CCCSc1ccc2[nH]c(NC(=O)OC)nc2c1,1.01
9,C[C@@H]1CC[C@H]2C(C)(C)[C@H]3C[C@@]12CC[C@@]3(C)O,1.15
10,CO[C@H]1/C=C/O[C@@]2(C)Oc3c(C)c(O)c4c(O)c(c(/C=N/N5CCN(C)CC5)c(O)c4c3C2=O)NC(=O)/C(C)=C\C=C\[C@H](C)[C@H](O)[C@@H](C)[C@@H](O)[C@@H](C)[C@H](OC(C)=O)[C@@H]1C,1.31 and 1
11,COc1cc(C)c(C(=O)O)c(O)c1,1.1
12,Cc1ccc(N(CC2=NCCN2)c2cccc(O)c2)cc1 [Phentolamine mesylate],0.821
13,Cc1ccc(N(CC2=NCCN2)c2cccc(O)c2)cc1,1
14,CCCCCCCCCCCCCCCC(=O)NCC(COP(=O)([O-])OCC[N+](C)(C)C)OCC (racemic) [rac-2-Ethoxy-3-hexadecanamido-1-propylphosphocholine],1.68
15,CC(C)(C)c1ccc(/C=C/C(=O)Nc2ccc3c(c2)OCCO3)cc1,0.958
16,CNC(=O)[C@H]1O[C@@H](n2cnc3c(N)ncnc32)[C@H](O)[C@@H]1O [5'-N-Methyl carboxamidoadenosine],0.93
17,O=C(O)c1ccccc1-c1c2cc(I)c(=O)c(I)c-2oc2c(I)c(O)c(I)cc12,1.17
18,CCc1ccc(CCOc2ccc(CC3SC(=O)NC3=O)cc2)nc1 (configuration not stated),1.02
19,CC[n+]1c(/C=C/C=C2/N(C)c3ccccc3C2(C)C)sc2ccccc21,0.807
20,CN(C)[C@@H]1C(O)=C(C(N)=O)C(=O)[C@@]2(O)C(O)=C3C(=O)c4c(O)cccc4[C@@](C)(O)[C@H]3C[C@@H]12,0.0571
21,COc1cc2nc(N3CCN(C(=O)OCc4ccccc4)[C@H](C(=O)NC(C)(C)C)C3)nc(N)c2cc1OC,0.966

row,SMILES,normalized bacterial growth
1,COCCCC/C(=N\OCCN)c1ccc(C(F)(F)F)cc1 [Fluvoxamine maleate],1.12
2,COC(=O)[C@H](c1ccccc1Cl)N1CCc2sccc2C1,0.96
3,C[C@]12CCC(=O)C=C1CC[C@@H]1[C@@H]2C(=O)C[C@@]2(C)[C@H]1CC[C@]2(O)C(=O)CO,1.07
4,C[C@]12CCC(=O)C=C1CC[C@@H]1[C@@H]2C(=O)C[C@@]2(C)[C@H]1CC[C@]2(O)C(=O)CO [Cortisone],0.664
5,CO[C@H]1[C@H](OC(=O)c2ccc(C)[nH]2)[C@H](O)[C@@H](Oc2ccc3c(O)c(NC(=O)c4c[nH]c(C(=O)Nc5c(O)c6ccc(O[C@H]7OC(C)(C)[C@@H](OC)[C@H](OC(=O)c8ccc(C)[nH]8)[C@@H]7O)c(C)c6oc5=O)c4C)c(=O)oc3c2C)OC1(C)C,0.814
6,CCCCN1CCC(n2c(=O)[nH]c3ccccc32)CC1 [NS 521 oxalate],1.1
7,NC(=O)c1ccccc1O,1
8,CCOC(=O)N1CCC(=C2c3ccc(Cl)cc3CCc3cccnc32)CC1 [Loratadine],0.821
9,Nc1nc(F)nc2c1ncn2[C@@H]1O[C@H](COP(=O)(O)O)[C@@H](O)[C@@H]1O,1.14
10,COc1ccc(-c2coc3cc(O)ccc3c2=O)cc1,1.04
11,Oc1c(Br)cc(Br)c2cccnc12,0.105
12,CCC(=O)O[C@H]1CC[C@H]2[C@@H]3CCc4cc(O)ccc4[C@H]3CC[C@]12C,1.03
13,COc1ccc(CC(C)NCC(O)c2ccc(O)c(NC=O)c2)cc1 (configuration not stated) [Formoterol],0.482
14,O=C(OCCN1CCOCC1)C1(c2ccccc2)CCCCC1,0.782
15,Cc1nnc(NS(=O)(=O)c2ccc(N)cc2)s1,1.11
16,CN(C)c1ccc(/C=C2/C(=O)Nc3ccccc32)cc1,0.848
17,CCN1CCC[C@H]1CNC(=O)c1c(OC)ccc(Br)c1OC [Remoxipride Hydrochloride],1.08
18,COc1ccc(/C=C/C(=O)c2c(O)cc(OC)cc2OC)cc1,0.923
19,C1CCN2C[C@@H]3C[C@@H](CN4CCCC[C@@H]34)[C@H]2C1,0.997 and 0.843
20,COc1ccc2c(OC)c3ccoc3nc2c1OC,1.1
21,O=c1cc(-c2ccc(O)c(-c3c(O)cc(O)c4c(=O)cc(-c5ccc(O)cc5)oc34)c2)oc2cc(O)cc(O)c12,0.746

# Some values from the list:
# In normalized bacterial growth, C[C@]12CCC(=O)C=C1CC[C@@H]1[C@@H]2C(=O)C[C@@]2(C)[C@H]1CC[C@]2(O)C(=O)CO [Cortisone] is entered as 0.664
# In normalized bacterial growth, CCN1CCC[C@H]1CNC(=O)c1c(OC)ccc(Br)c1OC [Remoxipride Hydrochloride] is entered as 1.08

# Remaining list, next part

row,SMILES,normalized bacterial growth
1,CC1CC(OC(=O)C(O)c2ccccc2)CC(C)(C)N1C (configuration not stated),1.16
2,CC1CC(OC(=O)C(O)c2ccccc2)CC(C)(C)N1C (configuration not stated) [Eucatropine hydrochloride],1.3
3,OC[C@H]1O[C@@H](n2cnc3c(NCc4ccco4)ncnc32)[C@H](O)[C@@H]1O,0.459
4,Cc1cnc(NC(=O)C2=C(O)c3ccccc3S(=O)(=O)N2C)s1 [Meloxicam],0.613
5,Cc1cnc(NC(=O)C2=C(O)c3ccccc3S(=O)(=O)N2C)s1 [Meloxicam sodium],1.26
6,O=C(O)CCCc1ccccc1,1.13 and 1.04
7,NC1=NCCN1CC(=O)O,0.965
8,CC1(C)O[C@@H]2C[C@H]3[C@@H]4CCC5=CC(=O)C=C[C@]5(C)[C@@]4(F)[C@@H](O)C[C@]3(C)[C@]2(C(=O)CO)O1,1.13
9,N=C(N)SCCc1c[nH]cn1 [Imetit dihydrobromide],1.07
10,C[C@@H]1C[C@H]2[C@@H]3CCC4=CC(=O)C=C[C@]4(C)[C@@]3(F)[C@@H](O)C[C@]2(C)[C@@]1(O)C(=O)CO,0.774
11,OC1(c2ccc(Cl)c(C(F)(F)F)c2)CCN(CCCC(c2ccc(F)cc2)c2ccc(F)cc2)CC1,1.33
12,O=C(O)COC(=O)Cc1ccccc1Nc1c(Cl)cccc1Cl [Aceclofenac],1.15
13,CC1(O)CC2C(CC1O)C2(C)C (configuration not stated),0.801
14,CN1CCN(c2nc3cc(C(F)(F)F)ccc3n3cccc23)CC1,1.04
15,O=C(O)/C=C/c1ccc(Cn2ccnc2)cc1 [Ozagrel hydrochloride],1.27
16,O=C(O[C@@H]1Cc2c(O)cc(O)cc2O[C@@H]1c1cc(O)c(=O)c2c(O)c(O)cc([C@H]3Oc4cc(O)cc(O)c4C[C@H]3O)c2c1)c1cc(O)c(O)c(O)c1,1.06
17,COC(=O)CC[C@@H](C)[C@H]1CC[C@H]2[C@@H]3CC[C@@H]4C[C@H](O)CC[C@]4(C)[C@H]3C[C@H](O)[C@]12C,0.751
18,COC(=O)C1=CO[C@@H](C)[C@@H]2CN3CCc4c([nH]c5ccccc45)[C@@H]3C[C@H]12,0.734
19,C[C@@H]1O[C@@H](O[C@H]2[C@H](O[C@H]3CC[C@@]4(C)[C@@H](CC[C@]5(C)[C@@H]4CC=C4[C@@H]6CC(C)(C)CC[C@]6(C(=O)O[C@@H]6O[C@H](CO[C@@H]7O[C@H](CO)[C@@H](O[C@@H]8O[C@@H](C)[C@H](O)[C@@H](O)[C@H]8O)[C@H](O)[C@H]7O)[C@@H](O)[C@H](O)[C@H]6O)CC[C@]45C)[C@]3(C)CO)OC[C@H](O)[C@@H]2O)[C@H](O)[C@H](O)[C@H]1O,1.15

# Five consecutive entries out of the list so far:
row,SMILES,normalized bacterial growth
3,OC[C@H]1O[C@@H](n2cnc3c(NCc4ccco4)ncnc32)[C@H](O)[C@@H]1O,0.459
4,Cc1cnc(NC(=O)C2=C(O)c3ccccc3S(=O)(=O)N2C)s1 [Meloxicam],0.613
5,Cc1cnc(NC(=O)C2=C(O)c3ccccc3S(=O)(=O)N2C)s1 [Meloxicam sodium],1.26
6,O=C(O)CCCc1ccccc1,1.13 and 1.04
7,NC1=NCCN1CC(=O)O,0.965
